The other results are listed elsewhere or left out. The main result of the screen is listed elsewhere. These columns were measured beside it and carry no call. Compounds called inactive in the main read-out are mostly missing here. Words in brackets tell the shape of the fitted curve; partial curves, single points and poor fits give uncertain potencies.
Test: qHTS Assay for Modulators of Lamin A Splicing
Details: HeLa LMNA splicing GFP/RFP minigene ratio, 48 h
Summary of the method: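 S3 HeLa stable clones carrying a lamin A-EGFP splicing minigene plus DsRed2 were seeded at 600 cells/well in Opti-MEM with 2% FBS, pin-dosed and incubated 48 h at 37°C. Acumen cytometry (488 nm) gave the GFP/RFP total-intensity ratio.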

[1] = measured here: RFP viability control channel
[2] = measured here: GFP splicing reporter channel

| SMILES | AC50 [1] | AC50 [2] |
| --- | --- | --- |
| CC(C)Cn1c(-c2ccc(Br)o2)n[nH]c1=S | 0.00355 µM [falling, full curve, poor fit] | – |
| NC(N)=NCCN1CCCCCCC1 | 1.41 µM [rising, single point] | 1.41 µM [rising, full curve] |
| CCC(c1nnnn1CCc1ccccc1)N(Cc1ccco1)Cc1cc2c(C)ccc(C)c2[nH]c1=O (stereo not given) | – | 1.41 µM [rising, full curve, poor fit] |
| c1cnc(N2CCN(Cc3c[nH]c4ccccc34)CC2)nc1 | 15.8 µM [falling, single point] | – |
| O=c1c(-c2ccc(Cl)cc2)nc2cnc(N3CCOCC3)nc2n1Cc1ccc(F)cc1 | 17.8 µM [falling, partial curve, poor fit] | 11.2 µM [falling, partial curve, poor fit] |
| CCOc1ccc(NC(=O)Cn2c(=O)n(CC3CCCO3)c(=O)c3ccccc32)cc1 (stereo not given) | 2.82 µM [rising, full curve, poor fit] | 6.31 µM [rising, partial curve, poor fit] |
| O=C(CSc1ncc(C(F)(F)F)cc1Cl)N1CCN(S(=O)(=O)c2ccccc2)CC1 | – | 0.0794 µM [rising, full curve, poor fit] |
| COc1c(C(=O)Nc2ccc(Cc3ccncc3)cc2)ccc2ccccc12 | 11.2 µM [rising, partial curve] | 11.2 µM [rising, partial curve] |
| O=C(NCc1cccnc1)C(=O)NCC(c1cccnc1)N1CCN(c2ccccc2)CC1 (stereo not given) | 35.5 µM [rising, single point] | – |
| CCN(CC)S(=O)(=O)c1cc(C(=O)N(C)CC(=O)Nc2ccc(Cl)cc2)ccc1Cl | 10 µM [rising, partial curve] | 12.6 µM [rising, partial curve] |
| CCCn1c(=O)c2ccccc2n2c(SCC(=O)c3ccc(CC)cc3)nnc12 | 2.82 µM [falling, partial curve] | – |
| c1ccc(Oc2cccc(OCCCCSc3ncccn3)c2)cc1 | 5.01 µM [falling, single point] | 3.55 µM [falling, full curve, poor fit] |
| COc1ccc2cc(C(=O)NCc3ccc4c(c3)CCN4C(=O)c3ccc(C)cc3)[nH]c2c1 | – | 0.112 µM [falling, partial curve, poor fit] |
| Cc1ccc(NC(=O)C(OC(=O)c2ccccc2Cl)c2ccccc2)cc1Cl (stereo not given) | 15.8 µM [rising, single point] | – |
| Nc1nc(SCC(=O)Nc2ccc3c(c2)CCC3)n[nH]1 | 12.6 µM [rising, single point] | 10 µM [rising, partial curve] |
| O=C(CCNc1ccc(Cc2ccncc2)cc1)c1cccc([N+](=O)[O-])c1 | 35.5 µM [falling, single point] | – |
| CCNc1nc(NCC)nc(N/N=C/c2ccc(Br)cc2)n1 | 3.55 µM [falling, partial curve, poor fit] | 31.6 µM [falling, partial curve] |
| CC1CCCCN1S(=O)(=O)c1ccc(S(=O)(=O)N(CC(=O)Nc2ccccc2)Cc2cccs2)cc1 (stereo not given) | 15.8 µM [rising, partial curve] | 17.8 µM [rising, partial curve, poor fit] |
| Cc1cc(=O)[nH]c(N/N=C/c2ccccc2C(F)(F)F)n1 | – | 7.08 µM [rising, partial curve, poor fit] |
| Cc1ccc(NC2=Nc3ccccc3CS2)cc1 | 5.01 µM [falling, single point] | – |
| C/C=C/Cn1c(SCCCc2ccccc2)nc2c1c(=O)[nH]c(=O)n2C | 35.5 µM [rising, single point] | 31.6 µM [rising, single point] |
| C(=N\n1cnnc1)/c1ccc(OCc2cccc3ccccc23)cc1 | 31.6 µM [rising, single point] | 25.1 µM [rising, single point] |
| CC1(C)CC(=O)C(C2=NC(C)(C)Cc3ccccc32)=C(O)C1 | 5.62 µM [rising, partial curve] | – |
| COC(=O)c1ccccc1NC(=O)c1cn(-c2ccc(C)c(C)c2)c(=O)c2ccccc12 | 22.4 µM [rising, single point] | – |
| O=C1C2C3c4ccccc4C(c4ccccc43)C2C(=O)N1c1ccncc1 (stereo not given) | 11.2 µM [falling, partial curve, poor fit] | 11.2 µM [falling, partial curve] |
| Cc1cccc(C2c3[nH]c4ccccc4c3CCN2C(=O)c2cc3c([nH]c2=O)CCCC3)n1 (stereo not given) | – | 0.0141 µM [falling, full curve] |
| Cc1cccc(-c2nnc(SCC#N)n2C)c1 | 0.282 µM [falling, full curve] | – |

| SMILES | AC50 [1] | AC50 [2] |
| --- | --- | --- |
| COc1ccc(-c2[nH]ncc2CNCCCSC)cc1F | – | 0.158 µM [rising, full curve, poor fit] |
| Cc1cc(C)c(C)c(S(=O)(=O)N2CCN(CC(=O)Nc3sccc3C#N)CC2)c1C | 22.4 µM [rising, single point] | – |
| CCc1cc2c(NCc3ccco3)ncnc2s1 | 22.4 µM [falling, partial curve, poor fit] | – |
| Cc1cc(C(=O)N=Nc2c(O)n(C(C)C)c3ccccc23)n[nH]1 | 0.00501 µM [rising, full curve, poor fit] | – |
| Cn1cnnc1SCc1ccc(-c2ccc(Br)cc2)o1 | 17.8 µM [rising, partial curve, poor fit] | 1.78 µM [rising, full curve, poor fit] |
| O=C(CSc1ccc(Cl)cc1)N1CCN(c2ncc(C(F)(F)F)cc2Cl)CC1 | 15.8 µM [rising, single point] | – |
| CCOC(=O)c1c(NC(=O)c2ccc(S(=O)(=O)N3CCCC(C)C3)cc2)sc2c1CCN(C(C)C)C2 (stereo not given) | 11.2 µM [falling, partial curve] | – |
| Nc1ccccc1Sc1nc2ccccc2[nH]1 | – | 10 µM [falling, partial curve, poor fit] |
| Cc1ccc(C)c2[nH]c(=O)c(CN(Cc3cccs3)C(=S)NCc3ccco3)cc12 | 12.6 µM [rising, partial curve, poor fit] | – |
| CC(C)(C)C(=O)Nc1ccc(C(=O)N/N=C/c2ccccc2OC(=O)c2ccc(Cl)cc2)cc1 | 11.2 µM [rising, partial curve] | – |
| CCOC(=O)c1cc(-c2ccccc2)n(-c2cccc(C(=O)N(CC)c3ccccc3)c2)c1C | 17.8 µM [rising, partial curve] | 22.4 µM [rising, partial curve, poor fit] |
| COc1ccc(CNC(=O)C2CCCN2S(=O)(=O)c2ccc(C)cc2)cc1 (stereo not given) | 15.8 µM [rising, single point] | 12.6 µM [rising, single point] |
| COc1cc(CNCCN2CCOCC2)ccc1OCc1c(Cl)cccc1Cl | 20 µM [rising, single point] | 12.6 µM [rising, single point] |
| CCOc1ccc(Br)cc1CSC(=N)N | 11.2 µM [rising, partial curve] | 14.1 µM [rising, partial curve] |
| O=C(CCC(=O)NNC(=O)COc1ccc(Br)cc1Br)NCc1ccccc1 | 35.5 µM [falling, single point] | 35.5 µM [falling, single point] |
| c1cc2c(cn1)cnc1cscc12 | – | 6.31 µM [rising, partial curve, poor fit] |
| O=C(Nc1nnc(-c2cccnc2)o1)c1cccc(Cl)c1 | 17.8 µM [falling, single point] | – |
| COc1cc(S(=O)(=O)N2CCC(c3nc4ccccc4s3)CC2)ccc1S(=O)(=O)NC1CCCC1 | 12.6 µM [rising, partial curve] | – |
| C=CCN(c1ccccc1)S(=O)(=O)c1cccc(C(=O)Nc2nnc(SCC)s2)c1 | 20 µM [rising, single point] | 14.1 µM [rising, single point] |
| COc1cc(-c2nnc(SCC(=O)c3ccccc3)o2)cc(OC)c1OC | 12.6 µM [rising, partial curve] | – |
| CCOC(=O)C(C(C)=O)c1c(Br)c(O)c(O)c2c(C(=O)c3ccc(C)cc3)coc12 (stereo not given) | 25.1 µM [falling, single point] | 20 µM [falling, single point] |
| CC(C)c1ccccc1-n1c(SCC(=O)c2ccc3c(c2)NC(=O)CO3)nc2ccccc2c1=O | 14.1 µM [rising, partial curve] | 4.47 µM [rising, full curve, poor fit] |
| Cc1ccc(CN2CCN(/N=C/c3ccc(C(=O)O)cc3)CC2)cc1 | 0.1 µM [falling, partial curve, poor fit] | – |
| CC(C)(C)c1ccc(-c2csc(NC(=O)CN3C(=O)NC4(CCCCC4)C3=O)n2)cc1 | 11.2 µM [rising, partial curve] | – |
| CCn1c(COc2ccc(C)cc2)nnc1SCC(=O)NNC(=O)c1ccc(OC)cc1 | 22.4 µM [rising, single point] | – |
| CC1=C(C(=O)Nc2ccc(C)cc2)C(c2ccc(Cl)cc2)n2nnnc2N1 (stereo not given) | 20 µM [rising, single point] | – |
| COc1cccc(-n2nnc3c(=O)n(CC(=O)N4CCC(Cc5ccccc5)CC4)cnc32)c1 | 0.00447 µM [falling, full curve, poor fit] | – |

Part of the list above in order of length of the SMILES, low to high:

| SMILES | AC50 [1] | AC50 [2] |
| --- | --- | --- |
| Nc1ccccc1Sc1nc2ccccc2[nH]1 | – | 10 µM [falling, partial curve, poor fit] |
| COc1ccc(-c2[nH]ncc2CNCCCSC)cc1F | – | 0.158 µM [rising, full curve, poor fit] |
| Cn1cnnc1SCc1ccc(-c2ccc(Br)cc2)o1 | 17.8 µM [rising, partial curve, poor fit] | 1.78 µM [rising, full curve, poor fit] |
| O=C(Nc1nnc(-c2cccnc2)o1)c1cccc(Cl)c1 | 17.8 µM [falling, single point] | – |
| Cc1ccc(CN2CCN(/N=C/c3ccc(C(=O)O)cc3)CC2)cc1 | 0.1 µM [falling, partial curve, poor fit] | – |
| O=C(CCC(=O)NNC(=O)COc1ccc(Br)cc1Br)NCc1ccccc1 | 35.5 µM [falling, single point] | 35.5 µM [falling, single point] |
| COc1ccc(CNC(=O)C2CCCN2S(=O)(=O)c2ccc(C)cc2)cc1 (stereo not given) | 15.8 µM [rising, single point] | 12.6 µM [rising, single point] |
| Cc1cc(C)c(C)c(S(=O)(=O)N2CCN(CC(=O)Nc3sccc3C#N)CC2)c1C | 22.4 µM [rising, single point] | – |
| CC(C)(C)c1ccc(-c2csc(NC(=O)CN3C(=O)NC4(CCCCC4)C3=O)n2)cc1 | 11.2 µM [rising, partial curve] | – |
| CCOC(=O)C(C(C)=O)c1c(Br)c(O)c(O)c2c(C(=O)c3ccc(C)cc3)coc12 (stereo not given) | 25.1 µM [falling, single point] | 20 µM [falling, single point] |
| CC(C)c1ccccc1-n1c(SCC(=O)c2ccc3c(c2)NC(=O)CO3)nc2ccccc2c1=O | 14.1 µM [rising, partial curve] | 4.47 µM [rising, full curve, poor fit] |
| COc1cc(S(=O)(=O)N2CCC(c3nc4ccccc4s3)CC2)ccc1S(=O)(=O)NC1CCCC1 | 12.6 µM [rising, partial curve] | – |
| CCOC(=O)c1c(NC(=O)c2ccc(S(=O)(=O)N3CCCC(C)C3)cc2)sc2c1CCN(C(C)C)C2 (stereo not given) | 11.2 µM [falling, partial curve] | – |
